# The shares of active, inactive and inconclusive entries below differ from those in the screen. For some of these results: A potency beside an inconclusive call is a rough fit, not a confirmed value. For some of these results: A note “side channel” means that the fit belongs to a control or component signal, not to the main read-out. Calls of active or inactive are those of the source. Unless noted, calls come from the whole dose curve.
# The chains behind the UniProt entries cited, without tags or fusion partners. Where a name states a change or a piece, a line headed by the entry shows the natural chain unless it says otherwise.
# UniProt P78324, whole entry, looked up: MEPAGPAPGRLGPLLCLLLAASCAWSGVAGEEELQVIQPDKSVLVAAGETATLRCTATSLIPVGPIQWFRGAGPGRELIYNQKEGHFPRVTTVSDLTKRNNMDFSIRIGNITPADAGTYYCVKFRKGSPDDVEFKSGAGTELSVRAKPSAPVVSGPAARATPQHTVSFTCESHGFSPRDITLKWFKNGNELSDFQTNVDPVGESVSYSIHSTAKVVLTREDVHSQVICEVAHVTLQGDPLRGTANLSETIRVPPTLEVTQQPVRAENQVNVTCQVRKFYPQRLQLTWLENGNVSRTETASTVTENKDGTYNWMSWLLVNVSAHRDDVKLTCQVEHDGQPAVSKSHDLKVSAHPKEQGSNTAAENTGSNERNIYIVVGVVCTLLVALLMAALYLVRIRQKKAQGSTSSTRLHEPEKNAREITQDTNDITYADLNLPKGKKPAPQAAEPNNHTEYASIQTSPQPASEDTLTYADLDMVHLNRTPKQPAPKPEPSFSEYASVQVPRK
# UniProt Q08722, whole entry, looked up: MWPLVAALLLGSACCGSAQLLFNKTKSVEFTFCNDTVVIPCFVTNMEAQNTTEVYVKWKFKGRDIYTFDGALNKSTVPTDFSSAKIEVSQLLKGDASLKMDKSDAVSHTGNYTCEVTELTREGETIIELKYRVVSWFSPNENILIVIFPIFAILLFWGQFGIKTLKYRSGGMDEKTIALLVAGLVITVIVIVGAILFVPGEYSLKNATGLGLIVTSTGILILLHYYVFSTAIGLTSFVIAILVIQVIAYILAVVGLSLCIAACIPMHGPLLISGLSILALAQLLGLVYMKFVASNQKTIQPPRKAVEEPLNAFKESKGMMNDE
# UniProt P16066: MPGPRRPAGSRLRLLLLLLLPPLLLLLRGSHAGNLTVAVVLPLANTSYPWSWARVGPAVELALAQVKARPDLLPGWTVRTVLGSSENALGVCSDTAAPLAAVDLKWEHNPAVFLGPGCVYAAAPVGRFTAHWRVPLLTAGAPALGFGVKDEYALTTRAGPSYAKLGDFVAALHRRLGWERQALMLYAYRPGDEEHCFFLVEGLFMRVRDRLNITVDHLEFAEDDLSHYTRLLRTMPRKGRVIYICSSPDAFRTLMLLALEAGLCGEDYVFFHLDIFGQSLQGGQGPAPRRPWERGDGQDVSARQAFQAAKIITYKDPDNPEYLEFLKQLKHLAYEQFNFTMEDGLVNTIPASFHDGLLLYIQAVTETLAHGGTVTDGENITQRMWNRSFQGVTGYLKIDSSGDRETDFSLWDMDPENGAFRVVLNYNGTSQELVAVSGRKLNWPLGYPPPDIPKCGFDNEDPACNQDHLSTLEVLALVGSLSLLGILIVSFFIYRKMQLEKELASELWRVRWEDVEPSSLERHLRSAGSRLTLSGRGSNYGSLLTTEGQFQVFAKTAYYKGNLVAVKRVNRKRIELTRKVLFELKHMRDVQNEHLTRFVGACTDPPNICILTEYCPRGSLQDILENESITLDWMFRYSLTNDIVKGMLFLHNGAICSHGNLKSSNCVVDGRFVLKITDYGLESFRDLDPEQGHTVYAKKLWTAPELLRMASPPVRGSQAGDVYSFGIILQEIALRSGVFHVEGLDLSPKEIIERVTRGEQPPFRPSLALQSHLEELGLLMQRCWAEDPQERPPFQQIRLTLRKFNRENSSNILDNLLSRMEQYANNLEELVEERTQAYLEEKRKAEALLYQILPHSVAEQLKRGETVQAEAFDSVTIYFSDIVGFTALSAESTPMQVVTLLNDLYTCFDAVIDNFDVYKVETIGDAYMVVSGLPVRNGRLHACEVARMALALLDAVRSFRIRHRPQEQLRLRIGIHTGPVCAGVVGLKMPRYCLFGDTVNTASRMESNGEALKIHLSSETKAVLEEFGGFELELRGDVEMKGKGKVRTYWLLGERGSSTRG
# Legend:
# [1] = Natriuretic polypeptide receptor (hNpr1) antagonism - Pilot counterscreen GloSensor control cell line (AID 1347045); note: potency is the fitted concentration of half-maximal effect
# Outline: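 HEK293 cGMP GloSensor cells preloaded 2 h with 2% GloSensor reagent, then compound 30 min before baseline luminescence read. Stimulated with 50 uM sodium nitroprusside, 20 min at room temperature, then read again; counterscreen for Npr1 antagonism.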
# [2] = NS1 protein of Zika virus - qHTS assay to identify small molecule inhibitors in human HEK 293 cells (AID 1347053; active = well fitted curve in the direction sought with a large enough effect; inconclusive = small, poorly fitted or top-dose-only effect, or another doubt; inactive = no such curve, though single readings can be large; an effect the other way counts as inactive or inconclusive; note: potency is the fitted concentration of half-maximal effect; nearly all actives have a fitted effect of over 55% in size)
# Outline: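 HEK 293; 20 h pre-culture, 37 C/5% CO2; cpd 1 h pre-infection; ZIKV MR766, MOI = 0.5, 24 h, 37 C; TR-FRET NS1 readout (two anti-NS1 Abs); norm. to no-virus vs infected.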
# [3] = target: Tyrosine-protein phosphatase non-receptor type substrate 1 (Homo sapiens) + Leukocyte surface antigen CD47 (Homo sapiens) (UniProt P78324+Q08722); test: CD47-SIRPalpha protein protein interaction - HTRF assay qHTS validation (AID 1347058; active = well fitted curve in the direction sought with a large enough effect in the signal ratio, not every such curve was filed as active; inconclusive = small, poorly fitted or top-dose-only effect, or effect the other way, or a change in a side signal; inactive = no such curve, though single readings can be large or run the other way; the % refers to the signal ratio)
# Outline: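 TR-FRET read (Ch1/Ch2 ratio) of soluble extracellular CD47 and Avi-biotinylated SIRPalpha domains in PBS pH 7.4 with 0.05% IGEPAL; 7-point compound titration. Sequential 30 min room-temperature steps; non-biotinylated SIRPalpha as control inhibitor.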
# [4] = qHTS of pediatric cancer cell lines to identify multiple opportunities for drug repurposing: Primary screen for DAOY cells (AID 1347090; active = well fitted curve in the direction sought with a large enough effect; inconclusive = small, poorly fitted or top-dose-only effect, or another doubt; inactive = no such curve, though single readings can be large; an effect the other way counts as inactive or inconclusive; note: potency is the fitted concentration of half-maximal effect; nearly all actives have a fitted effect of over 55% in size); conditions: DAOY medulloblastoma viability, CellTiter-Glo luminescence, 48 h; series mostly up to 46 µM
# Outline: (§1)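 Eight- or eleven-point concentration series, 48 h treatment at 37 degrees C in growth media; readout CellTiter-Glo luminescence. Potency and efficacy were taken from the concentration-response curves.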
# [5] = target: Atrial natriuretic peptide receptor 1 (Homo sapiens) (UniProt P16066); test: Natriuretic polypeptide receptor (hNpr1) antagonism - Pilot screen (AID 1347049);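 note: agonist-evoked cGMP luminescence read 20 min after hNppA addition; potency is the fitted concentration of half-maximal effect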
# Outline: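 HEK293 cells co-expressing hNpr1 and the GloSensor pGS-40F cGMP luciferase sensor were preloaded with 2% GloSensor reagent for 2 h. Compounds were added for 30 min at room temperature, then cells were stimulated with 0.1 nM hNppA for 20 min before luminescence readout.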
# [6] = qHTS of pediatric cancer cell lines to identify multiple opportunities for drug repurposing: Primary screen for SJ-GBM2 cells (AID 1347091; active = well fitted curve in the direction sought with a large enough effect; inconclusive = small, poorly fitted or top-dose-only effect, or another doubt; inactive = no such curve, though single readings can be large; an effect the other way counts as inactive or inconclusive)
# Outline: as §1
smiles,measurement,setting,value
COC(=O)C1=C(C)NC(C)=C(C(=O)OC)C1c1ccccc1[N+](=O)[O-],Potency,[1],"inconclusive: 26.1 µM [inhibitor, single point]"
same,Potency,[2],"inconclusive: 35.5 µM [inhibitor, single point]"
same,Potency,[3],"inconclusive: 6.56 µM [side channel, falling, partial curve]"
same,Potency,[4],"inconclusive: 21.1 µM [cytotoxic, single point]"
Cc1cccc(/C=C/c2ccccc2)n1,Potency,[5],"inconclusive: 26.9 µM [inhibitor, single point]"
same,Potency,[3],inactive
O=Nc1ccc2oc(=O)ccc2c1,Potency,[1],"inconclusive: 26.1 µM [inhibitor, partial curve, poor fit]"
same,Potency,[3],"inconclusive: 9.27 µM [side channel, falling, partial curve]"
N[C@@H](Cc1c[nH]c2ccc(O)cc12)C(=O)O,Potency,[1],inactive
same,Potency,[3],inactive
OCC1O[C@H](O)C(Cl)C(O)C1O (stereo partly specified),Potency,[1],"inconclusive: 2.93 µM [inhibitor, partial curve]"
same,Potency,[3],"inconclusive: 26.1 µM [side channel, falling, single point]"
CNC(=O)Oc1ccc2c(c1)[C@]1(C)CCN(C)[C@@H]1N2C,Potency,[5],"inconclusive: 23.9 µM [inhibitor, single point]"
same,Potency,[3],"inconclusive: 26.1 µM [side channel, falling, single point]"
same,Potency,[6],inactive
O=C1Cc2cc(CCN3CCN(c4nsc5ccccc45)CC3)c(Cl)cc2N1,Potency,[2],"inconclusive: 35.5 µM [inhibitor, single point]"

# Part of the list above, set out differently:
smiles | measurement | setting | value
Cc1cccc(/C=C/c2ccccc2)n1 | Potency | [3] | inactive
CNC(=O)Oc1ccc2c(c1)[C@]1(C)CCN(C)[C@@H]1N2C | Potency | [3] | inconclusive: 26.1 µM [side channel, falling, single point]

# Reference: PubChem BioAssay (NCATS)
